According to patent publication US20210253715A1 (NATIONAL RESEARCH COUNCIL OF CANADA, published 2021):
Results are given in words; binding and its absence hold for the method and conditions named. Some results given as binding are weak or reduced against the parent protein; the word gives no strength.

Protein sequences, listed by entry. Tags and fused reporters are not part of them. Residues count along the entry.
UniProt P08069, residues 31-932: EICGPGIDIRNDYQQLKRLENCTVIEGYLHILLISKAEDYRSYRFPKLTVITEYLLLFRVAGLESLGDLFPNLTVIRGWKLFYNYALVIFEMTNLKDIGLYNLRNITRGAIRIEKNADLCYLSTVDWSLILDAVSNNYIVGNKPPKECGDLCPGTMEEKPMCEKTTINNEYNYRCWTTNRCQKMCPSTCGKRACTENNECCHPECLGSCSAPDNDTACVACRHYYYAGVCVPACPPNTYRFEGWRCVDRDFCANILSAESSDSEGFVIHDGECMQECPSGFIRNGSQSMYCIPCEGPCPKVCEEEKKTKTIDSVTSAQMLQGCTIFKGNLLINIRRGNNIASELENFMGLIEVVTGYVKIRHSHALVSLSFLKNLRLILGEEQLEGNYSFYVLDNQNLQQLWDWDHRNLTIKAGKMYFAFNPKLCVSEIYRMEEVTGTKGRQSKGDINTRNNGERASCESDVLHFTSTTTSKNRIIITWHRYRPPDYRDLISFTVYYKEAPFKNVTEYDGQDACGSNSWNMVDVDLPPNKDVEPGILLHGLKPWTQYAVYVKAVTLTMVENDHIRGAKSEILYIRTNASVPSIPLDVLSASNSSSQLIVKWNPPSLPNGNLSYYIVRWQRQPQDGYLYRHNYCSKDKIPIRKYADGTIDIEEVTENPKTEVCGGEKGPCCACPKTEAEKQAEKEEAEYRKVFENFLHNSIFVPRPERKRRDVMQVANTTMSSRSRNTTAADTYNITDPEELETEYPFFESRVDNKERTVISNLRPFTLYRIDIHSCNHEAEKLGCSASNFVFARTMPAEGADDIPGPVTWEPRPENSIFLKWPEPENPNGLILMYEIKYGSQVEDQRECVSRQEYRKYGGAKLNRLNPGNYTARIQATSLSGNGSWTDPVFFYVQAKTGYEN

Assays:
human IGF1R [1] = target: T1, human IGF1R (human, UniProt P08069 31-932, limits assumed); assay: SPR
T1 construct: also called hIGF1R; h-IGF1R

human IGF1R [2] = target: T1, human IGF1R; assay: SPR, hIGF1R immobilised on CM4 chip

binding (human IGF1R [1]): binds
binding (human IGF1R [2]): binds
B1: IGF1R3H5-IDS (capped) (other)
chain: EVQLVESGGGLVQPGGSLRLSCAASEYPSNFYAMSWFRQAPGKEREFVSGVSRDGLTTLYADSVKGRFTISRDNSKNTLYLQMNSLRAEDTAVYYCAIVITGVWNKVDVNSRSYHYWGQGTLVTVSSGGGGSGGGGSGGGGSGGGGSGGGGSSETQANSTTDALNVLLIIVDDLRPSLGCYGDKLVRSPNIDQLASHSLLFQNAFAQQAVCAPSRVSFLTGRRPDTTRLYDFNSYWRVHAGNFSTIPQYFKENGYVTMSVGKVFHPGISSNHTDDSPYSWSFPPYHPSSEKYENTKTCRGPDGELHANLLCPVDVLDVPEGTLPDKQSTEQAIQLLEKMKTSASPFFLAVGYHKPHIPFRYPKEFQKLYPLENITLAPDPEVPDGLPPVAYNPWMDIRQREDVQALNISVPYGPIPVDFQRKIRQSYFASVSYLDTQVGRLLSALDDLQLANSTIIAFTSDHGWALGEHGEWAKYSNFDVATHVPLIFYVPGRTASLPEAGEKLFPYLDPFDSASQLMEPGRQSMDLVELVSLFPTLAGLAGLQVPPRCPVPSFHVELCREGKNLLKHFRFRDLEEDPYLPGNPRELIAYSQYPRPSDIPQWNSDKPSLKDIKIMGYSIRTIDYRYTVWVGFNPDEFLANFSDIHAGELYFVDSDPLQDHNMYNDSQGGDLFQLLMPHHHHHHHHWSHPQFEK
modifications: phosphorylated N-glycans; Man-6-P still capped (no uncapping)
notes: also called capped IGF1R3H5-IDS
